Where two headings read alike, the source gives them in different places.
Format: in vivo, rats
Settings: morphine 4.0 mg/kg
Description: When rats are fixed with chronically indwelling bipolar electrodes for electrical stimulation of the medial forebrain bundle, they will press levers for brief durations of stimulation. The higher the intensity of stimulation, the greater the pressing. […] These relationships plus extant theory provide the rationale for using pressing for brain stimulation as a means of assessing the reinforcing effects of drugs and assessing which drugs might affect another drug's reinforcing effects.
The particulars of the procedures used herein are briefly summarized. Further information is in Reid (cited above) and Reid et al. (Life Sciences, 52, PL67-71 (1993)). Rats were fixed with chronically indwelling bipolar electrodes. Using standard stereotaxic methods, which includes full anesthesia, the tips of the electrode were aimed to stimulate the medial forebrain bundle as it traverses the lateral hypothalamus. With the skull held in a stereotaxic instrument so that a plane between bregma and lamba was perpendicular to the shaft of the electrode, the following stereotaxic coordinates were used: 3.5 mm posterior to brema, 1.6 mm lateral to the midline, and 8.6 mm below the surface of the skull.
The apparatus of these tests was a Skinner box (24×30 ×38 cm) equipped with a lever (2.5×2 cm). […]

CN1CC[C@]23c4c5ccc(O)c4O[C@H]2[C@@H](O)C=C[C@H]3[C@H]1C5 [Morphine, reference compound]
pressing for brain stimulation, morphine alone: leads to a marked increase in pressing compared to pressing under the influence of placebo
pressing for brain stimulation, morphine alone (listed as morphine): increased pressing for brain stimulation

— patent US5411965A, “Use of delta opioid receptor antagonists to treat cocaine abuse” (Arizona Board of Regents, priority 1993, dated 1995)
